US11013690B2, “Esterification/saponification-based method for liposomal encapsulation of hydrophilic glucuronides” (priority 2016, dated 2021)

Experiment: Liposome loading, glucuronide-mE versus glucuronide form
Assay type: physicochemical
Conditions: pH gradient liposomes, 75° C., 1 hour; label is the parental drug

Structure (SMILES) | improvement of liposome loading under glucuronide-mE form compared to glucuronide form
CC[C@@]1(O)C(=O)OCc2c1cc1n(c2=O)Cc2cc3c(N)cccc3nc2-1 [9AC, 9-aminocamptothecin, reference compound] | over 275 folds
Cc1cc(=O)oc2cc(O)ccc12 [4MU, 4-methylumbelliferone] | 55 folds
